# PubChem BioAssay AID1224826, NIAID | 2016
# Test: 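Regulators of Tlr4 signalling leading to Tnf-alpha expression in macrophages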 (primary screen)
# System: RAW264.7 G9 macrophages from mouse bearing reporters for p65 (GFP) and the Tnf promoter (mCherry)
# Knock-down reagent: siRNA pool against mouse genes, 100 nM
# Time to read-out: 16 h of LPS stimulation, after 2 days of siRNA transfection
# Challenge: bacterial lipopolysaccharide (Salmonella minnesota R595), 10 ng/ml
# Read-out: 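Imaged Tnf reporter mCherry in nuclei, minus background, normalised per plate to the median and expressed as robust z-scores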
# Scale: Tnf reporter robust z-score: higher = stronger Tnf promoter reporter signal after LPS; Tnf reporter intensity: higher = stronger Tnf promoter reporter signal
# Active means: 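a well counts as active at a score of -1.3 or below (Tlr4 knock-down control median) or above 3 (raised signal); controls and wells holding fewer than 50 cells are excluded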
# Calls: active = Tnf reporter clearly lowered or raised; inactive = no clear change in Tnf reporter
# This is a random part of about 17,000 deposited reagents. In the full data, about 1,110 (6.6%) were called active. 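Active means lowered or raised reporter signal; replicate intensities are raw and not normalised per plate.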 Entries without a mark were called inactive. Reagents against one gene are numbered here.
gene knocked down,pool no.,Tnf reporter robust z-score,fewer than 50 cells in well,"Tnf reporter intensity, replicate 1","Tnf reporter intensity, replicate 2"
Hectd3,1,-0.53,enough cells in well,177,29.3
Il27ra,1,1.8,enough cells in well,401,230
Or4d2b,1,,fewer than 50 cells per well; well left out of calls,6.2,171
Naaa,1,-0.16,enough cells in well,176,142
Strn,1,0.24,enough cells in well,123,99.9
Smchd1,1,,fewer than 50 cells per well; well left out of calls,146,37.7
Cox7c,1,1.09,enough cells in well,263,229
Csnk1d,1,1.37,enough cells in well,287,148
Arhgef38,1,0.11,enough cells in well,151,179
Mlkl,1,-1.13,enough cells in well,110,107
Camk2d,1,-0.12,enough cells in well,180,159
Spem2,1,,fewer than 50 cells per well; well left out of calls,204,84.2
Epha8,1,2,enough cells in well,294,293
Tsga10,1,-0.42,enough cells in well,98.1,79.6
Cd300c2,1,0.43,enough cells in well,287,203
Wfdc12,1,0.86,enough cells in well,150,100
Rpl10,1,,fewer than 50 cells per well; well left out of calls,65,49.6
Zfp655,1,-0.41,enough cells in well,208,62.8
Cdh23,1,-0.78,enough cells in well,164,169
Alpk3,1,0.75,enough cells in well,300,152
Syvn1,1,,fewer than 50 cells per well; well left out of calls,163,42.5
Ifit1,1,0.19,enough cells in well,249,150
Thsd4,1,-0.55,enough cells in well,101,155
Wnt7b,1,-1.02,enough cells in well,126,181
Wipf1,1,0.22,enough cells in well,296,233
Eci1,1,-0.19,enough cells in well,199,233
Rpl12,1,-0.64,enough cells in well,105,102
Endou,1,1.15,enough cells in well,363,248
Cdk18,1,-1.22,enough cells in well,116,104
Foxc2,1,-0.33,enough cells in well,219,218
Cdyl2,1,2,enough cells in well,245,337
Slc44a2,1,1.11,enough cells in well,485,71.4
Abcc6,1,-1.28,enough cells in well,82.6,97.7
Lrrc47,1,,fewer than 50 cells per well; well left out of calls,177,50.9
Elovl5,1,1.22,enough cells in well,263,136
Wnt1,1,-0.13,enough cells in well,257,212

Part of the list above, limited to “Tnf reporter intensity, replicate 2”.
Rpl12	102
Endou	248
Cdk18	104
Foxc2	218
Cdyl2	337
Slc44a2	71.4
Abcc6	97.7

The listing continues.
gene knocked down,pool no.,Tnf reporter robust z-score,fewer than 50 cells in well,"Tnf reporter intensity, replicate 1","Tnf reporter intensity, replicate 2"
Rnf24,1,2.15,enough cells in well,204,237
Anxa8,1,-1.13,enough cells in well,85.6,104
H2-M10.2,1,0.43,enough cells in well,294,180
Pcgf6,1,0.72,enough cells in well,175,142
Trim21,1,-0.87,enough cells in well,154,172
Lce1h,1,1.63,enough cells in well,158,152
Gm14296,1,0.61,enough cells in well,163,75.3
Gm14296,2,,fewer than 50 cells per well; well left out of calls,167,196
1700001G17Rik,1,-1.6 (active),enough cells in well,107,34.7
Nat3,1,1,enough cells in well,239,178
Capn10,1,1.4,enough cells in well,222,226
Supt4b,1,-1.93 (active),enough cells in well,41.2,29.6
Fcna,1,0.08,enough cells in well,243,229
Rnase4,1,2.16,enough cells in well,216,226
Pik3ca,1,-0.42,enough cells in well,116,187
Impdh2,1,-0.15,enough cells in well,200,162
Nup153,1,0.27,enough cells in well,250,209
Dennd1c,1,-1.2,enough cells in well,114,35.4
Paqr8,1,,fewer than 50 cells per well; well left out of calls,209,67.2
Rmdn1,1,0.94,enough cells in well,324,89.6
Tmem108,1,-0.88,enough cells in well,130,106
Gmeb2,1,-0.29,enough cells in well,201,162
